# Reference: patent US6942981
# How the values were obtained:
# [1] = target: GST-KIAA0561 PDZ domain fusion protein; experiment: G assay
# [2] = target: GST-KIAA0561 PDZ domain fusion protein; experiment: A/G assays (Table 2)
binding [1],binding [2],Binder
binds,–,LASKSAEEGKQIPDSLSTDL (biotin at the amino-terminus) [DOCK2 C-terminal peptide AA40L]
binds,binds,SSKSKSSEESQTFFGLYKL (biotin at the amino-terminus) [FasLigand C-terminal peptide AA23L-M]

# No constants are given. Whether binding was seen depends on the method and setting. Binding calls can cover weak binding; strength is not graded here.
